System: lipopolysaccharide-induced COPD mice
Assay: Lipopolysaccharide-induced COPD mice, inflammatory cells (WBC) in bronchial airways
Format: in vivo, ICR mice
Conditions: BALF; positive control group b.i.d., nebulizing 30 min

COc1ccc(C[C@@H](C)NC[C@H](O)c2ccc(O)c(NC=O)c2)cc1 [Arformoterol]
WBC: 0.5310 ± 0.1424 109/L

Reference: patent US11534398B2, “Inhaled preparation of isoglycyrrhizic acid or salt thereof, and use in preparing drugs for treating respiratory system diseases” (priority 2016, dated 2022)
